Experimental findings from PubChem BioAssay (NCATS) are described below.

This is one part of the list. The main result of the screen is listed elsewhere. These columns were measured beside it and carry no call. Compounds called inactive in the main read-out are mostly missing here. Words in brackets tell the shape of the fitted curve; partial curves, single points and poor fits give uncertain potencies.

Experiment [1] can be described thus: qHTS Assay for Modulators of Human Peripheral Myelin Protein 22 (PMP22) Expression/Activity (AID 1967). The conditions noted are these: Cell-based PMP22 reporter, dual-color luciferase ratio. The gist of the method:
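MSC80 mouse Schwann cells stably carrying Pmp22 promoter–green click beetle luciferase plus EF-alpha–red luciferase control were dosed for 24h at 37 °C. Dual-colour luminescence was filter-overlap corrected; %Activity came from green/red ratio versus untreated cells.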

Experiment [2] is described as follows: A High-Content qHTS Against Drug Library for the Identification of Small Molecules that Inhibit DYT1 Early Onset Primary Dystonia-Associated Cell Pathology (AID 1645839). The conditions noted are these: HEK293 Flp-In EGFP-delE TorsinA, punctate imaging, 48 h; measured here: cell count cytotoxicity. The procedure, abridged: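 In this high-content image screen, delE TorsinA mislocalization in inducible Flp-In 293 cells is scored as %pathology, with cell count serving as the counterscreen. Compound exposure lasts 48 h under tetracycline induction in reduced-serum medium.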

Experiment [3] in a line: qHTS for identification of novel therapeutic agents for treatment of microphthalmiaassociated transcription factor (MiT) renal cell carcinoma (RCC) (AID 1963991). The conditions noted are these: CellTiter-Glo, 48 h; for z-score: stronger effect = lower value. The gist of the method: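 Three TFE3-fusion RCC cell lines (UOK109, UOK124, UOK145), 500 cells/well, were exposed to the 1912-compound MIPE 4.0 library for 48 hours at 37 C. Viability was read by CellTiter-Glo luminescence, normalised to DMSO (100%) and empty wells (0%), with 11-concentration curve fits.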

Experiment [4] is described as follows: S16 Schwann cell PMP22 intronic element beta-lactamase assay (AID 624044). The conditions noted are these: S16 rat Schwann cells, PMP22 element beta-lactamase FRET, 24 h; measured here: 460 nm blue channel. The procedure, abridged: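 Rat S16 Schwann cells with beta-Lac driven by a PMP22 intronic element, compound-treated 24 h at 37 °C. LiveBLAzer FRET B/G read: 460 nm normalized to potassium clavulanate vs DMSO; 535 nm FRET as viability; concentration-effect curves classified.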

Turning to `O=c1[nH]c2ccccc2n1CCCN1CCN(C(c2ccccc2)c2ccccc2)CC1`, the AC50 is 84.9 µM [falling, single point] in experiment [1] (measured here: green reporter channel AC50, mouse Pmp22 promoter in mouse Schwann cells); 84.9 µM [falling, single point] in experiment [1] (measured here: red reporter channel AC50, EF-alpha promoter control reporter in MSC80 mouse Schwann cells); 31.6 µM [falling, single point] in experiment [2].

Regarding `CN1CCCC(n2nc(Cc3ccc(Cl)cc3)c3ccccc3c2=O)CC1` (stereo unspecified), the AC50 was 17.8 µM [falling, single point] in experiment [2]; 2.35 µM [falling, full curve] in experiment [3] (TFE3-RCC viability, measured here: UOK124 cell viability); 14.8 µM [falling, partial curve] in experiment [3] (TFE3-RCC viability, measured here: UOK145 cell viability). Moreover, the z-score was -0.87 in experiment [3] (TFE3-RCC UOK109 viability, measured here: UOK109 Z-AUC); -1.5 in experiment [3] (TFE3-RCC viability, measured here: UOK124 Z-AUC); -0.522 in experiment [3] (TFE3-RCC viability, measured here: UOK145 Z-AUC).

Regarding `CC(=O)OC[C@H]1O[C@@](COC(C)=O)(O[C@H]2O[C@H](COC(C)=O)[C@@H](OC(C)=O)[C@H](OC(C)=O)[C@H]2OC(C)=O)[C@@H](OC(C)=O)[C@@H]1OC(C)=O`, the AC50 in experiment [4] was 1.58 µM [falling, full curve, poor fit]; in experiment [2], 10 µM [falling, partial curve, poor fit].
